Data reported in paper PMC8028314, “Sae2 and Rif2 regulate MRX endonuclease activity at DNA double-strand breaks in opposite manners” (Cell Reports, 2021).
Changes are numbered by the printed parent chain. In names and notes the source's numbering stands. These are yes or no findings as the source states them, for the method shown. Some results given as binding are weak or reduced against the parent protein; the word gives no strength. Where a sequence is shown, tags or fusion partners need not be part of it. Blank lines part the entries; values can stand above or below the molecule they belong to.

Assays:
[1] = molecular target: T1, MBP-Rif2-his (S. cerevisiae) (UniProt Q06208); assay: pull-down; MBP-Rif2-his from Sf9 lysate bound to amylose resin, washed with 1 M then 0.1 M NaCl buffer (50 mM Tris-HCl pH 7.5, 0.2% NP40, 2 mM EDTA); recombinant MR variants (1 ug) added, 1 h at 4°C; washed with 0.1 M NaCl buffer; eluted with 20 mM maltose and cleaved with PreScission protease; Ponceau (Rif2) and western blots (anti-Rad50, anti-His); both purified
T1 sequence: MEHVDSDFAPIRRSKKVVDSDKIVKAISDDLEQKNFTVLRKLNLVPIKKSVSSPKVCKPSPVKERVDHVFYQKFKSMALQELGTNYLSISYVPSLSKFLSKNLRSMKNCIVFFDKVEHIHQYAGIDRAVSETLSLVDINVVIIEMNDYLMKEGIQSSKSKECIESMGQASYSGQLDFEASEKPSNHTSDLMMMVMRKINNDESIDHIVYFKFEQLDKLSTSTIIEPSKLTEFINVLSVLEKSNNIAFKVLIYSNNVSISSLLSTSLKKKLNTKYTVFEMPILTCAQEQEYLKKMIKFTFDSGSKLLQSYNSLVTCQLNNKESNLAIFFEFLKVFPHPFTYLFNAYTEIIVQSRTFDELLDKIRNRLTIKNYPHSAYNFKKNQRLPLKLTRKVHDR

[2] = molecular target: T2, His-tagged Mre11 (S. cerevisiae) (UniProt P32829); assay: co-purification; His-tagged Mre11 and untagged Rad50 expressed in Sf9 cells; complex purified by NiNTA affinity chromatography, then HiTrap SP HP and HiTrap Q HP ion-exchange chromatography
T2 sequence: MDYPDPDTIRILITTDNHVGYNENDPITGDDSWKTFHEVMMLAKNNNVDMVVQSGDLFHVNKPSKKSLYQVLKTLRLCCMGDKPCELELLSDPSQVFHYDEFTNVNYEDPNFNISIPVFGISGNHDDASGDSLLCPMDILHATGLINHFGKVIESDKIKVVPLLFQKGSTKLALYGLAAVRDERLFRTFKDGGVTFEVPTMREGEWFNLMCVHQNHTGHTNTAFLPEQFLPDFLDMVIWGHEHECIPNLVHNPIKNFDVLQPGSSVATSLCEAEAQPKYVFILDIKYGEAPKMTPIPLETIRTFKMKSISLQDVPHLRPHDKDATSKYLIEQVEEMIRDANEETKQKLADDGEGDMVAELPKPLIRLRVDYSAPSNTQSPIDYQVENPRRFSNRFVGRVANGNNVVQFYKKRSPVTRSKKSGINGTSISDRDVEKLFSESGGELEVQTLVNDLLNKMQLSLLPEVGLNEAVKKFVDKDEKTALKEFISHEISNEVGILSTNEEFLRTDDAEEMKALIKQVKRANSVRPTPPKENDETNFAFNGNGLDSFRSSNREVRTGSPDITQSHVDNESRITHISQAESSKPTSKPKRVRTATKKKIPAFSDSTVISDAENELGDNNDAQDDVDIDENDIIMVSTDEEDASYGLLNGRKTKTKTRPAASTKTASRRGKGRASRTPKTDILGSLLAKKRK

binding [1]: binds weakly
Molecule: Mre11-Rad50-N18S mutant complex (from UniProt P32829 1-692; P12753 1-1312)

binding [2]: binds
B1: untagged Rad50 (protein, UniProt P12753 1-1312)
chain: MSAIYKLSIQGIRSFDSNDRETIEFGKPLTLIVGMNGSGKTTIIECLKYATTGDLPPNSKGGVFIHDPKITGEKDIRAQVKLAFTSANGLNMIVTRNIQLLMKKTTTTFKTLEGQLVAINNSGDRSTLSTRSLELDAQVPLYLGVPKAILEYVIFCHQEDSLWPLSEPSNLKKKFDEIFQAMKFTKALDNLKSIKKDMSVDIKLLKQSVEHLKLDKDRSKAMKLNIHQLQTKIDQYNEEVSEIESQLNEITEKSDKLFKSNQDFQKILSKVENLKNTKLSISDQVKRLSNSIDILDLSKPDLQNLLANFSKVLMDKNNQLRDLETDISSLKDRQSSLQSLSNSLIRRQGELEAGKETYEKNRNHLSSLKEAFQHKFQGLSNIENSDMAQVNHEMSQFKAFISQDLTDTIDQFAKDIQLKETNLSDLIKSITVDSQNLEYNKKDRSKLIHDSEELAEKLKSFKSLSTQDSLNHELENLKTYKEKLQSWESENIIPKLNQKIEEKNNEMIILENQIEKFQDRIMKTNQQADLYAKLGLIKKSINTKLDELQKITEKLQNDSRIRQVFPLTQEFQRADLEMDFQKLFINMQKNIAINNKKMHELDRRYTNALYNLNTIEKDLQDNQKSKEKVIQLLSENLPEDCTIDEYNDVLEETELSYKTALENLKMHQTTLEFNRKALEIAERDSCCYLCSRKFENESFKSKLLQELKTKTDANFEKTLKDTVQNEKEYLHSLRLLEKHIITLNSINEKIDNSQKCLEKAKEETKTSKSKLDELEVDSTKLKDEKELAESEIRPLIEKFTYLEKELKDLENSSKTISEELSIYNTSEDGIQTVDELRDQQRKMNDSLRELRKTISDLQMEKDEKVRENSRMINLIKEKELTVSEIESSLTQKQNIDDSIRSKRENINDIDSRVKELEARIISLKNKKDEAQSVLDKVKNERDIQVRNKQKTVADINRLIDRFQTIYNEVVDFEAKGFDELQTTIKELELNKAQMLELKEQLDLKSNEVNEEKRKLADSNNEEKNLKQNLELIELKSQLQHIESEISRLDVQNAEAERDKYQEESLRLRTRFEKLSSENAGKLGEMKQLQNQIDSLTHQLRTDYKDIEKNYHKEWVELQTRSFVTDDIDVYSKALDSAIMKYHGLKMQDINRIIDELWKRTYSGTDIDTIKIRSDEVSSTVKGKSYNYRVVMYKQDVELDMRGRCSAGQKVLASIIIRLALSETFGANCGVIALDEPTTNLDEENIESLAKSLHNIINMRRHQKNFQLIVITHDEKFLGHMNAAAFTDHFFKVKRDDRQKSQIEWVDINRVTY

binding [2]: binds
B2: untagged Rad50-N18S (protein, UniProt P12753 1-1312)
chain: B1 chain with N18S
